Data: the supplement of paper PMC8728848
Some of the results follow.

Key:
Experiment in all cases: glycan array binding signal (z-score within array); higher = stronger binding
Conditions in all cases: glycan notation: IUPAC condensed, linker removed
[1] = biological target: Neu5Ac(a2-6)Gal(b1-4)GlcNAc(b1-2)Man(a1-3)[Man(a1-6)]Man(b1-4)GlcNAc(b1-4)GlcNAc
In short: (§1)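 Arrays were curated from the Consortium for Functional Glycomics database, 3228 in total, and kept only where the protein sequence was available. Binding is expressed as a within-array Z-score. This score was averaged across arrays of the same protein sequence at different concentrations or buffers and across linkers, and negative values can be read as non-binding.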

[2] = biological target: Neu5Ac(a2-6)Gal(b1-4)GlcNAc(b1-2)Man(a1-3)[Neu5Ac(a2-3)Gal(b1-4)GlcNAc(b1-2)Man(a1-6)]Man(b1-4)GlcNAc(b1-4)GlcNAc
In short: as §1

[3] = biological target: Neu5Ac(a2-6)Gal(b1-4)GlcNAc(b1-2)Man(a1-3)[Neu5Ac(a2-6)Gal(b1-4)GlcNAc(b1-2)Man(a1-6)]Man(b1-4)GlcNAc(b1-4)GlcNAc
In short: as §1

[4] = biological target: Neu5Ac(a2-6)Gal(b1-4)GlcNAc(b1-2)Man(a1-3)[Neu5Ac(a2-6)Gal(b1-4)GlcNAc(b1-2)Man(a1-6)]Man(b1-4)GlcNAc(b1-4)[Fuc(a1-6)]GlcNAc
In short: as §1

[5] = biological target: Neu5Ac(a2-6)Gal(b1-4)GlcNAc(b1-2)Man(a1-6)Man(b1-4)GlcNAc(b1-4)GlcNAc
In short: as §1

[6] = biological target: Neu5Ac(a2-6)Gal(b1-4)GlcNAc(b1-2)Man(a1-6)[Gal(b1-4)GlcNAc(b1-2)Man(a1-3)]Man(b1-4)GlcNAc(b1-4)GlcNAc
In short: as §1

[7] = biological target: Neu5Ac(a2-6)Gal(b1-4)GlcNAc(b1-2)Man(a1-6)[GlcNAc(b1-2)Man(a1-3)]Man(b1-4)GlcNAc(b1-4)GlcNAc
In short: as §1

[8] = biological target: Neu5Ac(a2-6)Gal(b1-4)GlcNAc(b1-2)Man(a1-6)[Man(a1-3)]Man(b1-4)GlcNAc(b1-4)GlcNAc
In short: as §1

[9] = biological target: Neu5Ac(a2-6)Gal(b1-4)GlcNAc(b1-2)[Neu5Ac(a2-6)Gal(b1-4)GlcNAc(b1-4)]Man(a1-3)[GlcNAc(b1-4)][Neu5Ac(a2-6)Gal(b1-4)GlcNAc(b1-2)[Neu5Ac(a2-6)Gal(b1-4)GlcNAc(b1-6)]Man(a1-6)]Man(b1-4)GlcNAc(b1-4)GlcNAc
In short: as §1

[10] = biological target: Neu5Ac(a2-6)Gal(b1-4)GlcNAc(b1-2)[Neu5Ac(a2-6)Gal(b1-4)GlcNAc(b1-4)]Man(a1-3)[GlcNAc(b1-4)][Neu5Ac(a2-6)Gal(b1-4)GlcNAc(b1-4)Man(a1-6)]Man(b1-4)GlcNAc(b1-4)GlcNAc
In short: as §1

[11] = biological target: Neu5Ac(a2-6)Gal(b1-4)GlcNAc(b1-2)[Neu5Ac(a2-6)Gal(b1-4)GlcNAc(b1-6)]Man(a1-6)[Neu5Ac(a2-6)Gal(b1-4)GlcNAc(b1-2)Man(a1-3)][GlcNAc(b1-4)]Man(b1-4)GlcNAc(b1-4)GlcNAc
In short: as §1

[12] = biological target: Neu5Ac(a2-6)Gal(b1-4)GlcNAc(b1-3)Gal(b1-3)GlcNAc
In short: as §1

[13] = biological target: Neu5Ac(a2-6)Gal(b1-4)GlcNAc(b1-3)Gal(b1-4)GlcNAc
In short: as §1

[14] = biological target: Neu5Ac(a2-6)Gal(b1-4)GlcNAc(b1-3)Gal(b1-4)GlcNAc(b1-2)Man(a1-3)[Neu5Ac(a2-6)Gal(b1-4)GlcNAc(b1-3)Gal(b1-4)GlcNAc(b1-2)Man(a1-6)]GalNAc
In short: as §1

[15] = biological target: Neu5Ac(a2-6)Gal(b1-4)GlcNAc(b1-3)Gal(b1-4)GlcNAc(b1-3)Gal(b1-4)GlcNAc
In short: as §1

[16] = biological target: Neu5Ac(a2-6)Gal(b1-4)GlcNAc(b1-3)Gal(b1-4)GlcNAc(b1-3)Gal(b1-4)GlcNAc(b1-2)Man(a1-3)[Neu5Ac(a2-6)Gal(b1-4)GlcNAc(b1-3)Gal(b1-4)GlcNAc(b1-3)Gal(b1-4)GlcNAc(b1-2)Man(a1-6)]GalNAc
In short: as §1

[17] = biological target: Neu5Ac(a2-6)Gal(b1-4)GlcNAc(b1-3)Gal(b1-4)GlcNAc(b1-3)GalNAc
In short: as §1

[18] = biological target: Neu5Ac(a2-6)Gal(b1-4)GlcNAc(b1-3)Gal(b1-4)GlcNAc(b1-3)[Neu5Ac(a2-6)Gal(b1-4)GlcNAc(b1-3)Gal(b1-4)GlcNAc(b1-6)]GalNAc
In short: as §1

[19] = biological target: Neu5Ac(a2-6)Gal(b1-4)GlcNAc(b1-3)Gal(b1-4)GlcNAc(b1-6)[Gal(b1-3)]GalNAc
In short: as §1

[20] = biological target: Neu5Ac(a2-6)Gal(b1-4)GlcNAc(b1-3)Gal(b1-4)[Fuc(a1-3)]GlcNAc(b1-3)Gal(b1-4)[Fuc(a1-3)]GlcNAc
In short: as §1

[21] = biological target: Neu5Ac(a2-6)Gal(b1-4)GlcNAc(b1-3)GalNAc
In short: as §1

[22] = biological target: Neu5Ac(a2-6)Gal(b1-4)GlcNAc(b1-3)[Neu5Ac(a2-6)Gal(b1-4)GlcNAc(b1-6)]GalNAc
In short: as §1

[23] = biological target: Neu5Ac(a2-6)Gal(b1-4)GlcNAc(b1-6)GalNAc
In short: as §1

[24] = biological target: Neu5Ac(a2-6)Gal(b1-4)GlcNAc(b1-6)[Gal(b1-3)GlcNAc(b1-3)]Gal(b1-4)Glc
In short: as §1

[25] = biological target: Neu5Ac(a2-6)Gal(b1-4)GlcNAc(b1-6)[Gal(b1-3)]GalNAc
In short: as §1

[26] = biological target: Neu5Ac(a2-6)Gal(b1-4)GlcNAc6S
In short: as §1

Neu5Ac(a2-6)GalNAc = biological target: Neu5Ac(a2-6)GalNAc
In short: as §1

[27] = biological target: Neu5Ac(a2-6)GalNAc(b1-4)GlcNAc
In short: as §1

[28] = biological target: Neu5Ac(a2-6)GalNAc(b1-4)GlcNAc6S
In short: as §1

[29] = biological target: Neu5Ac(a2-6)GlcNAc(b1-4)GlcNAc
In short: as §1

[30] = biological target: Neu5Ac(a2-6)GlcNAc(b1-4)GlcNAc(b1-4)GlcNAc
In short: as §1

B1: Wzz (Escherichia coli) (protein)
chain: MRTWKFPSVRVMMRVENNNVSGQNHDPEQIDLIDLLVQLWRGKMTIIISVIVAIVLAIGYLAVAKEKWTSTAIITQPDVGQIAGYNNAMNVIYGQAAPKVSDLQETLIGRFSSAFSALAETLDNQEEPEKLTIEPSVKNQQLPLTVSYVGQTAEGAQMKLAQYIQQVDDKVNQELEKDLKDNIALGRKNLQDSLRTQEVVAQEQKDLRIRQIQEALQYANQAQVTKPQIQQTGEDITQDTLFLLGSEALESMIKHEATRPLVFSSNYYQTRQNLLDIDNLDVDKLDIHAYLYVMKPTLPIRRDSPKKAITLILAVLLGGMVGAGIVLGRNALRNYNAK
For B1, the “glycan array binding signal (z-score)” value [1] was 0.686, the “glycan array binding signal (z-score)” value [2] was -0.083 and the “glycan array binding signal (z-score)” value [3] was -0.151. For the same binder, the “glycan array binding signal (z-score)” value [4] was -0.603, the “glycan array binding signal (z-score)” value [5] was 2.29 and the “glycan array binding signal (z-score)” value [6] was 1.24. For the same binder, the “glycan array binding signal (z-score)” value [7] was 0.335, the “glycan array binding signal (z-score)” value [8] was 1.66 and the “glycan array binding signal (z-score)” value [9] was -0.038. For the same binder, the “glycan array binding signal (z-score)” value [10] was -0.003, the “glycan array binding signal (z-score)” value [11] was 0.568 and the “glycan array binding signal (z-score)” value [12] was -0.164. The “glycan array binding signal (z-score)” value [13] was -0.401, the “glycan array binding signal (z-score)” value [14] was 0.089 and the “glycan array binding signal (z-score)” value [15] was -0.268. For the same binder, the “glycan array binding signal (z-score)” value [16] was 0.712, the “glycan array binding signal (z-score)” value [17] was -0.637 and the “glycan array binding signal (z-score)” value [18] was 0.074. For the same binder, the “glycan array binding signal (z-score)” value [19] was 1.21, the “glycan array binding signal (z-score)” value [20] was 0.316 and the “glycan array binding signal (z-score)” value [21] was 0.018. For the same binder, the “glycan array binding signal (z-score)” value [22] was 1.31, the “glycan array binding signal (z-score)” value [23] was 1.4 and the “glycan array binding signal (z-score)” value [24] was -0.436. The “glycan array binding signal (z-score)” value [25] was 0.187, the “glycan array binding signal (z-score)” value [26] was -0.593 and the “glycan array binding signal (z-score)” value (Neu5Ac(a2-6)GalNAc) was -0.89. The “glycan array binding signal (z-score)” value [27] was -0.993, the “glycan array binding signal (z-score)” value [28] was -0.127 and the “glycan array binding signal (z-score)” value [29] was 0.29. The “glycan array binding signal (z-score)” value [30] was -0.069.
